PubChem BioAssay AID1224830 – NIAID, 2016

Purpose: 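Genes whose knock-down alters the TNF-alpha reporter response to LPS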 (primary screen)
System: human THP-1 monocytic leukaemia cells, TNF dual-luciferase reporter clone, PMA-differentiated to macrophage-like cells
Knock-down reagent: siRNA pool against human genes, 50 nM
Timing: LPS for 4 h, given about 3 days after siRNA transfection
Challenge: bacterial LPS (TLR4 ligand), 10 ng/ml
Measured: 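TNF firefly reporter luminescence divided by renilla, normalised to the plate median, then turned into a robust z-score for each replicate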
Scale: TNF reporter robust z-score: higher = stronger TNF reporter response to LPS
Call rule: 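Each well counts as active if its z-score is over 2.8 or under -1.5; controls are left without a call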
Shown is a random part of about 18,000 reagents. In the full data, about 2,900 (16%) are marked active. 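Calls are made per well; low scores hint the gene aids the LPS response, high scores that it dampens it.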 Repeated entries: four replicate wells of each siRNA pool.

For IZUMO2 (IZUMO family member 2) the deposit lists TNF reporter robust z-score 0.68; inactive.
Knock-down of IZUMO2 (IZUMO family member 2) resulted in: TNF reporter robust z-score 0.98; inactive.
For IZUMO2 (IZUMO family member 2), the entry reads TNF reporter robust z-score 2.17; inactive.
For IZUMO2 (IZUMO family member 2), the values are TNF reporter robust z-score 0.23; inactive.
ENY2 (ENY2 transcription and export complex 2 subunit) showed TNF reporter robust z-score 2.47; inactive.
For ENY2 (ENY2 transcription and export complex 2 subunit) the deposit lists TNF reporter robust z-score 1.4; inactive.
For ENY2 (ENY2 transcription and export complex 2 subunit), the values are TNF reporter robust z-score 0.41; inactive.
Against ENY2 (ENY2 transcription and export complex 2 subunit) the deposit lists TNF reporter robust z-score 0.38; inactive.
Knock-down of SLC35G5 came out at: TNF reporter robust z-score 0.43; inactive.
After knock-down of SLC35G5, the record shows TNF reporter robust z-score 0.65; inactive.
SLC35G5 showed TNF reporter robust z-score -0.69; inactive.
With knock-down of SLC35G5, the screen gave TNF reporter robust z-score 0; inactive.
Depletion of VIT (vitrin) came out at: TNF reporter robust z-score 1.91; inactive.
Silencing of VIT (vitrin) resulted in: TNF reporter robust z-score 1.8; inactive.
VIT (vitrin) gave TNF reporter robust z-score 2.07; inactive.
For VIT (vitrin) the deposit lists TNF reporter robust z-score 2.28; inactive.

8 of these entries in another layout.
{"target gene": "ENY2 (ENY2 transcription and export complex 2 subunit)", "TNF reporter robust z-score": 2.47, "outcome": "inactive"}
{"target gene": "ENY2 (ENY2 transcription and export complex 2 subunit)", "TNF reporter robust z-score": 1.4, "outcome": "inactive"}
{"target gene": "ENY2 (ENY2 transcription and export complex 2 subunit)", "TNF reporter robust z-score": 0.41, "outcome": "inactive"}
{"target gene": "ENY2 (ENY2 transcription and export complex 2 subunit)", "TNF reporter robust z-score": 0.38, "outcome": "inactive"}
{"target gene": "SLC35G5", "TNF reporter robust z-score": 0.43, "outcome": "inactive"}
{"target gene": "SLC35G5", "TNF reporter robust z-score": 0.65, "outcome": "inactive"}
{"target gene": "SLC35G5", "TNF reporter robust z-score": -0.69, "outcome": "inactive"}
{"target gene": "SLC35G5", "TNF reporter robust z-score": 0, "outcome": "inactive"}

The results go on:
Silencing of C1orf115 (chromosome 1 open reading frame 115) resulted in: TNF reporter robust z-score 0.8; inactive.
Depletion of C1orf115 (chromosome 1 open reading frame 115) resulted in: TNF reporter robust z-score 2.98; active.
Against C1orf115 (chromosome 1 open reading frame 115) the deposit lists TNF reporter robust z-score 1.13; inactive.
C1orf115 (chromosome 1 open reading frame 115) scored TNF reporter robust z-score 1.84; inactive.
Against MSC (musculin), the values are TNF reporter robust z-score -0.93; inactive.
After knock-down of MSC (musculin), the record shows TNF reporter robust z-score -0.36; inactive.
With knock-down of MSC (musculin), the screen gave TNF reporter robust z-score -0.6; inactive.
MSC (musculin) showed TNF reporter robust z-score -0.87; inactive.
LGALS9B (galectin 9B) scored TNF reporter robust z-score 1.71; inactive.
For LGALS9B (galectin 9B) the deposit lists TNF reporter robust z-score 1.15; inactive.
After knock-down of LGALS9B (galectin 9B), the record shows TNF reporter robust z-score 1.82; inactive.
LGALS9B (galectin 9B) scored TNF reporter robust z-score 1.08; inactive.
Depletion of MAIP1 (matrix AAA peptidase interacting protein 1) came out at: TNF reporter robust z-score 0.33; inactive.
For MAIP1 (matrix AAA peptidase interacting protein 1), the values are TNF reporter robust z-score 0.26; inactive.
Against MAIP1 (matrix AAA peptidase interacting protein 1) the deposit lists TNF reporter robust z-score 1.42; inactive.
With knock-down of MAIP1 (matrix AAA peptidase interacting protein 1) the results were TNF reporter robust z-score 0.25; inactive.
Silencing of STX2 (syntaxin 2) gave: TNF reporter robust z-score -0.52; inactive.
Against STX2 (syntaxin 2), the entry reads TNF reporter robust z-score -0.11; inactive.
With knock-down of STX2 (syntaxin 2), the screen gave TNF reporter robust z-score -0.57; inactive.
STX2 (syntaxin 2) showed TNF reporter robust z-score 1.08; inactive.
MLXIP (MLX interacting protein) showed TNF reporter robust z-score 0.07; inactive.
MLXIP (MLX interacting protein) showed TNF reporter robust z-score -0.39; inactive.
After knock-down of MLXIP (MLX interacting protein), the record shows TNF reporter robust z-score -0.56; inactive.
For MLXIP (MLX interacting protein), the entry reads TNF reporter robust z-score 0.01; inactive.
Knock-down of ITGB7 (integrin subunit beta 7) came out at: TNF reporter robust z-score 0.23; inactive.
ITGB7 (integrin subunit beta 7) showed TNF reporter robust z-score -0.41; inactive.
With knock-down of ITGB7 (integrin subunit beta 7) the results were TNF reporter robust z-score -0.66; inactive.
ITGB7 (integrin subunit beta 7) gave TNF reporter robust z-score -0.21; inactive.
For MRPL32 (mitochondrial ribosomal protein L32) the deposit lists TNF reporter robust z-score -1.56; active.
With knock-down of MRPL32 (mitochondrial ribosomal protein L32), the record shows TNF reporter robust z-score -0.39; inactive.
MRPL32 (mitochondrial ribosomal protein L32) showed TNF reporter robust z-score -0.04; inactive.
Against MRPL32 (mitochondrial ribosomal protein L32), the values are TNF reporter robust z-score 0.25; inactive.
